Where a name gives a salt, the structure may show the parent alone. Read-outs that look alike come from different tables or passages of the source. The whole screen tested about 3,300 compounds, of which about 60 (2%) showed an effect of 50% or more. Some of the results follow.

The experiment deals with HCoV-OC43. Also noted: species or system RD; HTS, protection from HCoV-OC43 induced cell death, luminescent cell viability (CellCounting-Lite 2.0), inhibition rate. Conditions: 24 h post infection, 1 h compound pre-incubation, 10 µM, inhibitor.

Turning to `CC(=O)OC1CC(C)CCC1C(C)C` (stereo not drawn) [Menthyl acetate], the “OC43 Inhibition rate” value was determined as 1.8%.
Turning to `COc1cc(O)c(C(=O)/C=C/c2ccccc2)c(O)c1` [Pinostrobin chalcone], the “OC43 Inhibition rate” value worked out at 0%.
Still for that read-out and setting: under `CN1Cc2c(ccc3c2OCO3)[C@@]2(C)[C@@H](O)Cc3cc4c(cc3[C@@H]12)OCO4` [Corynoline] stands 27.7%.
On the same count and under the same terms, under `COc1cc(O)ccc1CCC(=O)c1ccc(O)cc1` [Loureirin C] stands 7%.
On the same count and under the same terms, under `CCc1cnccn1` [2-Ethylpyrazine] stands 4.1%; under `C[C@@]12C[C@@]3(O)O[C@@H](O1)[C@]1(COC(=O)c4ccccc4)[C@@H]3C[C@]12O[C@@H]1O[C@H](COC(=O)c2cc(O)c(O)c(O)c2)[C@@H](O)[C@H](O)[C@H]1O` [Galloylpaeoniflorin], 0.4%.
For the compound `CN(C)C` [Trimethylammonium chloride], the “OC43 Inhibition rate” value is on record as -0.3%.
Still for that read-out and setting: under `O[C@H]1[C@H]2c3cc4c(cc3CN3CC[C@H](C[C@@H]1O)[C@H]23)OCO4` [Dihydrolycorine] stands 0%.
On to `CC(=O)OC[C@H]1O[C@@H](O[C@@H]2[C@@H](O)[C@H](O[C@@H]3[C@H](O)C(C)(C)C[C@H]4C5=CC[C@@H]6[C@@]7(C)CC[C@H](O[C@@H]8O[C@H](C(=O)O)[C@@H](O)[C@H](O)[C@H]8O[C@@H]8O[C@H](CO)[C@H](O)[C@H](O)[C@H]8O[C@@H]8O[C@H](CO)[C@@H](O)[C@H](O)[C@H]8O)[C@](C)(CO)[C@@H]7CC[C@@]6(C)[C@]5(C)CC[C@@]34C)OC[C@@H]2O)[C@H](OC(C)=O)[C@@H](OC(C)=O)[C@@H]1OC(C)=O` [Soyasaponin Ab], for which the “OC43 Inhibition rate” value is recorded as -0.4%.
Still for that read-out and setting: in the case of `COc1cc(/C=C/C(=O)O[C@H]2[C@H](O)[C@@H](CO)O[C@@]2(CO)O[C@H]2O[C@H](COC(=O)c3ccc(O)cc3)[C@@H](O)[C@H](O)[C@H]2O)cc(OC)c1O` [Tenuifoliside B] it was -0.6%; in that of `C=C1C[C@@]23CC[C@H]4[C@@](C)(CCC[C@@]4(C)C(=O)O[C@@H]4O[C@H](CO)[C@@H](O)[C@H](O)[C@H]4O)[C@@H]2CC[C@]1(O[C@@H]1O[C@H](CO)[C@@H](O)[C@H](O)[C@H]1O[C@@H]1O[C@H](CO)[C@@H](O)[C@H](O)[C@H]1O)C3` [Stevioside], 0%; in that of `COC(=O)C1=CO[C@@H](O[C@@H]2O[C@H](CO)[C@@H](O)[C@H](O)[C@H]2O)[C@@H]2[C@H](C)O[C@@H](O)C[C@H]12` [Morroniside], -0.7%.
As to `OC[C@H]1OC(O)[C@H](O)[C@H](O)[C@@H]1O` (stereo partly drawn) [D-Allose], the “OC43 Inhibition rate” value is -0.3%.
Consider `Nc1nc2c(ncn2[C@H]2C[C@H](O)[C@@H](CO)O2)c(=O)[nH]1` [2'-Deoxyguanosine], for which, for the setting “OC43 Inhibition rate, 24 h”, the “OC43 Inhibition rate” value is 3.5%.
For `CC(C)=CCC/C(C)=C/COc1c2ccoc2cc2oc(=O)ccc12` [Bergamottin], the “OC43 Inhibition rate” value is reported as -3.1%.
Consider `CCC/C=C1\OC(=O)C2=C1CCC=C2` [(Z)-Ligustilide], for which the “OC43 Inhibition rate” value was -0.4%.
Same read-out and setting: under `O=C(O)/C=C\c1ccc2occc2c1O[C@@H]1O[C@H](CO)[C@@H](O)[C@H](O)[C@H]1O` [Isopsoralenoside] stands -2.6%.
`C=C1C[C@@]23CC[C@H]4[C@@](C)(CCC[C@@]4(C)C(=O)O[C@@H]4O[C@H](CO)[C@@H](O)[C@H](O)[C@H]4O)[C@@H]2CC[C@]1(O[C@@H]1O[C@H](CO)[C@@H](O)[C@H](O)[C@H]1O[C@@H]1O[C@H](CO)[C@@H](O)[C@H](O[C@@H]2O[C@H](CO)[C@@H](O)[C@H](O)[C@H]2O)[C@H]1O)C3` [Rebaudioside A]: the “OC43 Inhibition rate” value is listed as -1.5%.
Consider `O=C(O)CCC(=O)O` [Succinic acid], for which the “OC43 Inhibition rate” value (OC43 Inhibition rate, 24 h) is given as 3.7%.
On to `Cn1cncc1CCN` [3-Methylhistamine (dihydrochloride)], for which the “OC43 Inhibition rate” value came out at 2.6%.
On the same count and under the same terms, in the case of `O=C1Cc2ccccc2N1` [Oxindole] it was 1.1%; in that of `CCCCCC/C=C\CCCCCCCc1cccc(O)c1C(=O)O` [Ginkgolic Acid], -1.9%; in that of `N=C(N)N` [Guanidine (hydrochloride)], -7.2%.
Still for that read-out and setting: in the case of `COc1cc([C@H]2c3cc(O)c(OC)cc3C[C@@H](CO)[C@@H]2CO)ccc1O` [(+)-Isolariciresinol] it was 0.3%; in that of `NC(C(=O)O)C(=O)O` [Aminomalonic acid], -6%; in that of `C[C@@H]1CC[C@]2(C(=O)O)CC[C@]3(C)C(=CC[C@@H]4[C@@]5(C)CC[C@H](O)C(C)(C)[C@@H]5CC[C@]43C)[C@@H]2[C@]1(C)O` [Pomolic acid], -2.9%.
Take `CC(C)c1cc2c(c(O)c1O)[C@@]13CCCC(C)(C)[C@@H]1[C@H](OC3=O)[C@H]2O` [Rosmanol]: the “OC43 Inhibition rate” value is reported as 0.5%.
On the same count and under the same terms, under `Cc1ncc([N+](=O)[O-])n1CC(O)CCl` (stereo not drawn) [Ornidazole] stands 18.4%; under `COc1cc(/C=C/C(=O)N2CCC=CC2=O)cc(OC)c1OC` [Piperlongumine], -0.1%; under `C/C=C(/C)C(=O)O[C@@H]1[C@H](OC(=O)CC(C)C)c2c(ccc3ccc(=O)oc23)OC1(C)C` [Praeruptorin C], 0%.
Same read-out and setting: under `COc1ccc(-c2coc3cc(O)c(OC)c(O)c3c2=O)cc1` [Irisolidone] stands 0.3%; under `O=C(O)CCc1ccc(O)cc1O` [3-(2,4-Dihydroxyphenyl)propanoic acid], -0.3%.
With `O=C(O)c1ccc2c(c1)C(=O)c1ccccc1C2=O` [Anthraquinone-2-carboxylic acid], the “OC43 Inhibition rate” value is 0.2%.
The same measure, in the same setting: under `CC(=O)O[C@@H]1C[C@@]23C[C@@]24CC[C@H](O[C@@H]2OC[C@@H](O)[C@H](O)[C@H]2O)C(C)(C)[C@@H]4CC[C@H]3[C@]2(C)C[C@@H]3O[C@]4(C[C@@H](C)[C@@H]3[C@@]12C)OC[C@@]1(C)O[C@@H]41` [26-Deoxyactein] stands 0.8%; under `CC(=O)[C@@]1(O)CC[C@H]2[C@@H]3CC=C4CC(O)CC[C@]4(C)[C@H]3CC[C@@]21C` (stereo partly drawn) [17a-Hydroxypregnenolone], 1.3%.
Same read-out and setting: in the case of `C[C@H]1[C@H](C)CC[C@]2(C(=O)O)CC[C@]3(C)C(=CC[C@@H]4[C@@]5(C)CCC(=O)C(C)(C)[C@@H]5CC[C@]43C)[C@H]12` [Ursonic acid] it was -1.5%.
